Structures can show the parent of a compound that is named as a salt. Some of the results follow. Hit calls seldom repeat between salt and free forms of one compound.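 In K562 cells expressing nanoluciferase-fused kinases, luminescence was recorded at 4 h intervals between 2 and 18 h, normalized as percent of control with DMSO at 100% and a positive control at 0%. A significant (2 sigma) signal drop marks a time point as decreased. The authors' rule for a hit is not shown and takes in more than the number of time points.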
Molecular target: CAMK2A (UniProt Q9UQM7)
Test: kinase-Nluc reporter destabilization hit call (1 = scored as downregulated) (binary); higher = compound decreases kinase abundance
Conditions: 10 µM; K562; 2-18 h

By UniProt entry, the sequences of proteins in these tests, tags left out. Where a name states a change or a piece, a line headed by the entry shows the natural chain unless it says otherwise.
UniProt Q9UQM7, whole entry: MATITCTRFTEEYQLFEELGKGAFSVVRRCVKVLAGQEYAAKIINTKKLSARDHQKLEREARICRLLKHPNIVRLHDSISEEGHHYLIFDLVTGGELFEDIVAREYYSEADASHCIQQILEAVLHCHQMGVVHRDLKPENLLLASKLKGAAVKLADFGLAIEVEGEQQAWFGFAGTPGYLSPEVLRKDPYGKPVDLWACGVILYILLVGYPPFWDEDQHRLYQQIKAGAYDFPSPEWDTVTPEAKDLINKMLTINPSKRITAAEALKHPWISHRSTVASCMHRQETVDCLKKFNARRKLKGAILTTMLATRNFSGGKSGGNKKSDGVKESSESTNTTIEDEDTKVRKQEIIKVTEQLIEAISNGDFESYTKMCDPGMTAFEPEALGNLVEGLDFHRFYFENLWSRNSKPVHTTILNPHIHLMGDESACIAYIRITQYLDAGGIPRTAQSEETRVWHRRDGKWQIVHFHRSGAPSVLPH
UniProt Q13555: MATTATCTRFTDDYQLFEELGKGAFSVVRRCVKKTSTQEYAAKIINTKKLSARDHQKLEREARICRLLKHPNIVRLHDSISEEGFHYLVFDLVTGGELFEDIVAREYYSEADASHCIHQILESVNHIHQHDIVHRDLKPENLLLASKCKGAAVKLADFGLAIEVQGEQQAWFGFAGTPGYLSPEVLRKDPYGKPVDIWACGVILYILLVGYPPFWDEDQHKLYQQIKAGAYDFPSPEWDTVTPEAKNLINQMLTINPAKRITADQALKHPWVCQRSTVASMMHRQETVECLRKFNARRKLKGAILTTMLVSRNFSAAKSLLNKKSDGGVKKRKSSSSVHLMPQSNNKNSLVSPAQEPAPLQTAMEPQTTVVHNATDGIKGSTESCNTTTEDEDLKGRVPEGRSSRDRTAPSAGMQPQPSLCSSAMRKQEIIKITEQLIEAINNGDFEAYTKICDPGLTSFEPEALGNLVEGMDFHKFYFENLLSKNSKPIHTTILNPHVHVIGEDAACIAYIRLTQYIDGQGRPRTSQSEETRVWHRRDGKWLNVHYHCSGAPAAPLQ

kinase-Nluc reporter destabilization hit call, inactive:
CCS(=O)(=O)N1CCN(c2ccc(Nc3ncc(C(N)=O)c(NC4CC4)n3)cc2)CC1 [Cerdulatinib (hydrochloride)] 0, C[C@@H](N)c1ccc(C(=O)Nc2ccnc3[nH]ccc23)cc1 0, COc1ncc(F)cc1CNc1ccc(Cc2c[nH]c3ncc(C)cc23)c(F)n1 0, CCS(=O)(=O)N1CC(CC#N)(n2cc(-c3ncnc4[nH]ccc34)cn2)C1 [Baricitinib (phosphate)] 0, COC(=O)[C@H](CC(C)C)NC(=O)c1ccc(NC[C@@H](N)CS)cc1-c1cccc2ccccc12 [GGTI298 (Trifluoroacetate)] 0, COCCOc1cc(F)c2c(Nc3ccc(NC(=O)Cn4cc(C(C)C)nn4)cc3)ncnc2c1 [AZD3229 Tosylate] 0, CC(C)(C)n1nc(-c2cccc3ccccc23)c2c(N)ncnc21 [1-Naphthyl PP1] 0, N#CCNC(=O)c1ccc(-c2ccnc(Nc3ccc(N4CCOCC4)cc3)n2)cc1 [Momelotinib sulfate] 0, Cn1ncc(Cl)c1-c1cc(C(=O)N[C@H](CN)Cc2cccc(F)c2)sc1Cl [Afuresertib] 0, CNC(=O)c1ccc(Nc2ncc(C(F)(F)F)c(NCc3nccnc3N(C)S(C)(=O)=O)n2)cc1 [Defactinib] 0, O=C(O)c1ccc2c(c1)nc(Nc1cccc(Cl)c1)c1ccncc12 [Silmitasertib] 0, O=C(Nc1cnn2ccc(N3CCC[C@@H]3c3cc(F)ccc3F)nc12)N1CC[C@H](O)C1 [Larotrectinib] 0, COc1cc2nccc(Oc3ccc(NC(=O)C4(C(=O)Nc5ccc(F)cc5)CC4)cc3)c2cc1OC [Cabozantinib (S-malate)] 0, CN(C)C(=N)NC(=N)N [Metformin (hydrochloride)] 0, COc1ccnc(C[S+]([O-])c2nc3cc(-n4cccc4)ccc3[nH]2)c1C (configuration not stated) [Ilaprazole (sodium)] 0, C#Cc1cccc(Nc2ncnc3cc4c(cc23)OCCOCCOCCO4)c1 [Icotinib (Hydrochloride)] 0, CC(C)NC[C@@H](C(=O)N1CCN(c2ncnc3c2[C@H](C)C[C@H]3O)CC1)c1ccc(Cl)cc1 [Ipatasertib] 0, CC(=O)c1c(C)c2cnc(Nc3ccc(N4CCNCC4)cn3)nc2n(C2CCCC2)c1=O [Palbociclib (monohydrochloride)] 0, C#Cc1cccc(Nc2ncnc3cc(OCCOC)c(OCCOC)cc23)c1 [Erlotinib] 0, OCCn1cc(-c2cnc3nnn(Cc4ccc5ncccc5c4)c3n2)cn1 0, CCN(CC)CC(=O)Nc1c(C)cccc1C [Lidocaine] 0, CCS(=O)(=O)N1CCN(c2ccc(Nc3ncc(C(N)=O)c(NC4CC4)n3)cc2)CC1 [Cerdulatinib] 0, C#Cc1cccc(Nc2ncnc3cc(OCCOC)c(OCCOC)cc23)c1 [Erlotinib (Hydrochloride)] 0, O=C(c1ccc(F)c(F)c1Nc1ccc(I)cc1F)N1CC(O)([C@@H]2CCCCN2)C1 [Cobimetinib] 0, CC(C)(C)n1nc(-c2cccc3ccccc23)c2c(N)ncnc21 [1-Naphthyl PP1 (hydrochloride)] 0, CC(=O)c1c(C)c2cnc(Nc3ccc(N4CCNCC4)cn3)nc2n(C2CCCC2)c1=O [Palbociclib (isethionate)] 0

Molecular target: CAMK2G (UniProt Q13555)
Test: as above
Conditions: 2 µM; K562; 2-18 h

kinase-Nluc reporter destabilization hit call, inactive:
CCc1nc(C(N)=O)c(Nc2ccc(N3CCC(N4CCN(C)CC4)CC3)c(OC)c2)nc1NC1CCOCC1 [Gilteritinib] 0, CCc1nc(C(N)=O)c(Nc2ccc(N3CCC(N4CCN(C)CC4)CC3)c(OC)c2)nc1NC1CCOCC1 [Gilteritinib hemifumarate] 0, Cc1[nH]c(/C=C2\C(=O)Nc3ccc(F)cc32)c(C)c1C(=O)NCCN1CCCC1 [Toceranib (phosphate)] 0, Cc1[nH]c(/C=C2\C(=O)Nc3ccc(F)cc32)c(C)c1C(=O)NCCN1CCCC1 [Toceranib] 0

Same assay, conditions: 2.5 µM; K562; 2-18 h

kinase-Nluc reporter destabilization hit call, inactive:
C=CC(=O)Nc1cc(Nc2nccc(-c3cn(C)c4ccccc34)n2)c(OC)cc1N(C)CCN(C)C [Osimertinib mesylate] 0, c1cc(-c2cnn3cc(-c4ccc(OCCN5CCCCC5)cc4)cnc23)ccn1 [Dorsomorphin] 0, CN(C)C/C=C/C(=O)Nc1cc2c(Nc3ccc(F)c(Cl)c3)ncnc2cc1O[C@H]1CCOC1 [Afatinib (dimaleate)] 0, C=CC(=O)Nc1cc(Nc2nccc(-c3cn(C)c4ccccc34)n2)c(OC)cc1N(C)CCN(C)C [Osimertinib] 0, CN(C)C(=O)c1cc2cnc(Nc3ccc(N4CCNCC4)cn3)nc2n1C1CCCC1 [Ribociclib hydrochloride] 0, COc1ccc(S(=O)(=O)Nc2ccccc2CN(C)C/C=C/c2ccc(Cl)cc2)cc1 [KN-92 (hydrochloride)] 0, COc1ccc(S(=O)(=O)Nc2ccccc2CN(C)C/C=C/c2ccc(Cl)cc2)cc1 [KN-92 (phosphate)] 0

Source: the supplement of paper PMC12823440, “Inhibitors supercharge kinase turnover through native proteolytic circuits” (Nature, 2025)
